42 sequences from publication PMC7819943, “Rice protein-binding microarrays: a tool to detect cis-acting elements near promoter regions in rice” can be followed below.

The other results are listed elsewhere or left out.

The experiment has as its target T1, OsSMF1 (Oryza sativa, UniProt Q6ZLB0 1-436).
T1 sequence: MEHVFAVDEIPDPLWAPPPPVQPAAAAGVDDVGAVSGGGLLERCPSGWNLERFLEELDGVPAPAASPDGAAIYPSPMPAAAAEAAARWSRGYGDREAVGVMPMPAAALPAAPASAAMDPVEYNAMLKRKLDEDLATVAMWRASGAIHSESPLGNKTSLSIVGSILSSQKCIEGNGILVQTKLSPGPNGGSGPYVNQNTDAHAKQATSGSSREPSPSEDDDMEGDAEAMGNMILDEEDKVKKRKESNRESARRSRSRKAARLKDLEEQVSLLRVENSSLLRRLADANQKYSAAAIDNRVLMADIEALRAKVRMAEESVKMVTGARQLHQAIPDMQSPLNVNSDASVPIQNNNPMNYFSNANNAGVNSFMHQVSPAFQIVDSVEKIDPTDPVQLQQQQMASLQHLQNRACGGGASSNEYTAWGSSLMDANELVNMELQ
Nature of the experiment: protein-binding microarray (RPBM); PBS, 2% BSA, 51.3 ng/ul salmon testes DNA, 50 uM zinc acetate, 200 nM TF, 25 C, 1 h; high values mean tight binding. The note with it: protein: recombinant; tags: N-terminal polyhistidine and DsRed monomer fusion (pET32a); chain copies: 2; label: CyDye5-dUTP incorporated in the synthesized complementary strand; 3' TTTTT single-stranded linker to array surface; dsDNA, one strand shown. Summed up: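 An Axon 4000B scanner gave the binding signal as per-feature fluorescence intensity in arbitrary units. This followed washing of a custom Agilent array that had been incubated for 1 h at 25 °C with 200 nM protein in PBS, 2% BSA, salmon testes DNA and 50 µM zinc acetate. The proteins were transcription factors fused at the N-terminus to polyhistidine and DsRed, expressed in E. coli BL21-CodonPlus and purified on Ni–NTA.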
In the case of “CGTTTTCATCTTGCAGGTGGACTTGGATCTTGGGAATTACCGGAGTCACCTAGTGCAG”, the binding signal is 3530 fluorescence intensity (a.u.).
The figure for “CCTGCTGCTGCTGAGTAGGATAGGTCTCTTTCTGTCTGTCCGGAGTCACCTAGTGCAG” is 4300 fluorescence intensity (a.u.); for “CAGCGCTCATCTACCCGAGCTCCACGTCACGCATCTCCCTCGGAGTCACCTAGTGCAG” it is 22500 fluorescence intensity (a.u.); for “TAGGATATTGATGCTAAAACGTGTCCCCACCAATTTACTGCGGAGTCACCTAGTGCAG” it is 3290 fluorescence intensity (a.u.).
The figure for “AGCTGGCTCCGGCACGTCGCGCCGGACACGAGGGACCTCTCGGAGTCACCTAGTGCAG” is 3460 fluorescence intensity (a.u.); for “TGTTGGACACAACGAAATACGACGCTTCCGTGGCCATCAGCGGAGTCACCTAGTGCAG” it is 3660 fluorescence intensity (a.u.); for “GAAAAGATGACCCCATATTCTCGTGTATTCTTTGACACTTCGGAGTCACCTAGTGCAG” it is 3390 fluorescence intensity (a.u.).
The figure for “GTTGTCGTCGTCACTGCCGCCGCCACCATCGCTGCGCCGCCGGAGTCACCTAGTGCAG” is 4570 fluorescence intensity (a.u.).
For the sequence “CGCCGCGCCGACCTCCCCGCCGGCGGCCGCGCGGTGAATCCGGAGTCACCTAGTGCAG”, the binding signal was 3460 fluorescence intensity (a.u.).
The figure for “ACTATCACAGGAGGAAGAATGTGATAAACTTACACATCAGCGGAGTCACCTAGTGCAG” is 5630 fluorescence intensity (a.u.); for “CAAGCTCTTTTCTCTGACTCCAACACAGTCACCTTCTCATCGGAGTCACCTAGTGCAG” it is 3960 fluorescence intensity (a.u.).
The figure for “AACACTAGTCTTTCACACGTATTGTTGTACTACATCCGTCCGGAGTCACCTAGTGCAG” is 5610 fluorescence intensity (a.u.).
As to “ATTCTTTCTGTCGGATGACAGTTGGCAAATTCATTGATTTCGGAGTCACCTAGTGCAG”, the binding signal is 3670 fluorescence intensity (a.u.).
The figure for “ATTATACTAAGTGTTGGTCAAATGTTTTAAAGGTTAAATCCGGAGTCACCTAGTGCAG” is 3470 fluorescence intensity (a.u.).
The figure for “AACCGCCACGTCAGATTCGCCGCCCGCCTCTCTCGTCGCCCGGAGTCACCTAGTGCAG” is 36000 fluorescence intensity (a.u.).
The figure for “TTGCTAAATGATATCAATTAAACGGTGTATCAATTCCATACGGAGTCACCTAGTGCAG” is 3190 fluorescence intensity (a.u.); for “CGACGCCGCCGAGATCGCCGTCACCCGAATCCTGCGACGCCGGAGTCACCTAGTGCAG” it is 3580 fluorescence intensity (a.u.); for “ACACAAAATTGATGATGCACCTACCGGTCCGGTAACAATACGGAGTCACCTAGTGCAG” it is 3340 fluorescence intensity (a.u.).
“TTGCGCTGGCGCCAACGCCTCTGCCAACAACTCACACATACGGAGTCACCTAGTGCAG”: the binding signal was 3140 fluorescence intensity (a.u.).
The figure for “CCGCCTCGGCTCGATCCGCCCATATATTTCCCACGCATTCCGGAGTCACCTAGTGCAG” is 3160 fluorescence intensity (a.u.); for “AAAGCCAAACAAGTGTCCAAACGGCTAGGAGTCAACCTCGCGGAGTCACCTAGTGCAG” it is 41200 fluorescence intensity (a.u.); for “GACACTTACAAGCACTGCGGCGTTACCATTTTATGGAACTCGGAGTCACCTAGTGCAG” it is 3220 fluorescence intensity (a.u.).
Take “ATAATCGTGATGTGGTTGTGATATTATCTTTTGTTAATGTCGGAGTCACCTAGTGCAG”: the binding signal was 3890 fluorescence intensity (a.u.).
The figure for “GTCAAAAGCAAGCAGCCACCTTATCTTCTCCTCCCGGCAGCGGAGTCACCTAGTGCAG” is 18500 fluorescence intensity (a.u.); for “ATGTGTTGGTACTGGTTTTAGGTTTGAGTGACGCGATCCACGGAGTCACCTAGTGCAG” it is 6460 fluorescence intensity (a.u.).
The figure for “CTTGGCCCATCAAAACGGGTGCCACGTGTCGCGCATCCAACGGAGTCACCTAGTGCAG” is 30100 fluorescence intensity (a.u.); for “ATAGGAGTTACCCTGCTACAATGCTACAATGCTACAGGCCCGGAGTCACCTAGTGCAG” it is 27800 fluorescence intensity (a.u.); for “TAGTGCGTCCACATCCAGCGATGGTGGTCAAGGTGACGGCCGGAGTCACCTAGTGCAG” it is 3250 fluorescence intensity (a.u.).
On to “ACTGCAACTTTCGTGGCTCCACTGGCCCCGGATCCCATCACGGAGTCACCTAGTGCAG”, for which the binding signal is 4710 fluorescence intensity (a.u.).
For “TATATCACTATATCAGAATCTGGTGAAGCCTCTGAATCATCGGAGTCACCTAGTGCAG”, the binding signal was 3600 fluorescence intensity (a.u.).
The figure for “GGTTCTGAATACCAATGCACGTCAATATTGTACCTTAGCTCGGAGTCACCTAGTGCAG” is 4130 fluorescence intensity (a.u.); for “CCTTCTTCTTTTGCGGTTGCGCGAGCACGTCGGTCGTGCGCGGAGTCACCTAGTGCAG” it is 4220 fluorescence intensity (a.u.).
The figure for “TATATATATACTCCTACGTAGGAACCAAGCGTATACGTACCGGAGTCACCTAGTGCAG” is 3850 fluorescence intensity (a.u.); for “CGACGCCAAGTACGTGTAGACACACGAGGAGACGGTCGCTCGGAGTCACCTAGTGCAG” it is 3490 fluorescence intensity (a.u.); for “CTTGTACTCTTTTCTCTCTACACAGTCAGGCACATCACTGCGGAGTCACCTAGTGCAG” it is 4800 fluorescence intensity (a.u.).
The figure for “ATACTGAGTTATGTAGAGATACATTGTCATTATAGTTATGCGGAGTCACCTAGTGCAG” is 4050 fluorescence intensity (a.u.); for “TATAATTGCTACGTAAGCGCCACGTCAATGCCATGTCAGACGGAGTCACCTAGTGCAG” it is 15700 fluorescence intensity (a.u.); for “TTAACGTAAGGAGCAGATGATGTGGAAGAGATAAGCGAGTCGGAGTCACCTAGTGCAG” it is 3470 fluorescence intensity (a.u.).
Turning to “AGATTGTACTTTATACCACGTACACGCGTAAAAGTCATCCCGGAGTCACCTAGTGCAG”, the binding signal was 4370 fluorescence intensity (a.u.).
The figure for “TATTAAAACTTGGCCGACAGGAAGCACGTGGCGCCGGTGGCGGAGTCACCTAGTGCAG” is 6170 fluorescence intensity (a.u.); for “GGCTCCACTTCAACAACTTGCACACAAGCTCCAAGCAACGCGGAGTCACCTAGTGCAG” it is 4640 fluorescence intensity (a.u.); for “GGAAGCAACAAGTGGAGGCATCGGACCAAACATTTCATCCCGGAGTCACCTAGTGCAG” it is 11000 fluorescence intensity (a.u.).
